No constants are given. Whether binding was seen depends on the method and setting. Some binding calls cover weakened binding; strength is not graded here. One block for each binder: values may come before it.
Key:
[1] = target: Methanothermobacter thermautotrophicus methanogenic-type seryl-tRNA synthetase (M. thermautotrophicus) (UniProt O27194); assay: SPR; unpublished observation; mSerRS with EF-G; format not told
[2] = target: T1, mSerRS as bait of the yeast two-hybrid search (M. thermautotrophicus) (UniProt O27194); assay: two-hybrid; yeast two-hybrid search for proteins that interact with mSerRS; preliminary, data not shown
T1 sequence: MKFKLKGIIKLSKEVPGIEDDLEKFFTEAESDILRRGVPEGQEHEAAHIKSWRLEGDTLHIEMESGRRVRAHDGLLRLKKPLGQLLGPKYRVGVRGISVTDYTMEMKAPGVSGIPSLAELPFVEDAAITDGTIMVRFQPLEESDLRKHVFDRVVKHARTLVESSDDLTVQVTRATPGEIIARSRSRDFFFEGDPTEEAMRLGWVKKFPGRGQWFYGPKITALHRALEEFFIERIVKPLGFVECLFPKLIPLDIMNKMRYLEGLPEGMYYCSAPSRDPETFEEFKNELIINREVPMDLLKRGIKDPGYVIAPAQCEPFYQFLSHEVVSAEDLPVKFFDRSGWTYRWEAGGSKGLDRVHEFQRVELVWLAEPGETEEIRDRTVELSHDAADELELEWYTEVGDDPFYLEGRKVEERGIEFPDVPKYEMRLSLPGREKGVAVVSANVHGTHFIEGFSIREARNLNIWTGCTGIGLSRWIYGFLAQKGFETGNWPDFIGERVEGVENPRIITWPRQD

Chains of the proteins cited; added tags and fusions are not shown.
UniProt O27496: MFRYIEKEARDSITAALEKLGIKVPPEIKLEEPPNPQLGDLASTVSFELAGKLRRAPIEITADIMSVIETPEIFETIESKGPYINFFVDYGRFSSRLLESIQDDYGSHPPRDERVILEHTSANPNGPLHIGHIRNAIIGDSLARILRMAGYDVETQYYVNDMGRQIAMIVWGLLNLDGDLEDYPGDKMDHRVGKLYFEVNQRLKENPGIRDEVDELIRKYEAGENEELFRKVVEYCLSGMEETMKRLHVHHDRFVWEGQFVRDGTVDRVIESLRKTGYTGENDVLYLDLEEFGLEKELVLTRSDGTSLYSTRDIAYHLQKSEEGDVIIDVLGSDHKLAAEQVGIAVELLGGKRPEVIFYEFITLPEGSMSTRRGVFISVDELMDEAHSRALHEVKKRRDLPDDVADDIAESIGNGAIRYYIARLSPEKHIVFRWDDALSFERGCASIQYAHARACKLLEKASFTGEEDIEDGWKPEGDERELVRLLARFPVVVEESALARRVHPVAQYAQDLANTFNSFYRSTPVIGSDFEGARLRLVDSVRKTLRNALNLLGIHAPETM

[3] = target: Methanothermobacter thermautotrophicus arginyl-tRNA synthetase (M. thermautotrophicus) (UniProt O27496); assay: SPR; ArgRS with ribosomal proteins; Ni-NTA surface used to immobilise His-tagged ArgRS, L6 or L12; which was held for which pair is not told; 25°C, Biacore T100; both purified
[4] = target: Methanothermobacter thermautotrophicus methanogenic-type seryl-tRNA synthetase (M. thermautotrophicus) (UniProt O27194); assay: native gel or EMSA; L12 (6 µM) mixed with mSerRS dimer (2-6 µM), 15 min at 37°C in 20 mM Tris-HCl pH 7.0, 50 mM NaCl, 6 mM MgCl2; 9% native polyacrylamide gel, Coomassie; both purified
[5] = target: Methanothermobacter thermautotrophicus methanogenic-type seryl-tRNA synthetase (M. thermautotrophicus) (UniProt O27194); assay: cross-linking; 70S ribosomes incubated with mSerRS or ArgRS; EDC; quenched; complexes pelleted; SDS-PAGE and mass spectrometry; both purified

B1: EF-G used in SPR with mSerRS (unpublished experiment) (protein, UniProt O27131 1-730)
chain: MSRRAKMISKIKELMYQPEYIRNIGIVAHIDHGKTTLSDNLLAGAGMISAELAGDQRFLDFDEQEQARGITIDAANVSMVHSYEGNEYLINLIDTPGHVDFGGDVTRAMRAVDGAVVVVCAVEGIMPQTETVLRQALKENVRPVLFINKVDRLINELKLDASELQERFVKIIANANKLIKNMAPEEFRDKWQVRVEDGSVAFGSAYHNWAINVPIMQETGINFNDIYKYCTEDNQKELAQKVPLHQVLLGMVVEHLPSPAESQAYRVPIIWSGDLESEEGQAMLKTDPEGPLAVMVTDVSIDKHAGEVATGRVYGGAIEKGSEVFLVGSHSKARVQQVGVYMGPERVNTDKVPAGNIVAITGAKNAVAGETICDTGRKIKAFEGLEHISEPVVTVAVEAKNTKDLPKLIEVLRQVGKEDPTVRVEINEETGEHLISGMGELHLEIIAYRINEKGVEIETSEPIVVYRETVAGTAGPVEGKSPNKHNRFYIEIEPVEASVMQAIQEGKIKEGRVKGKEMAKNFIEAGMDKEEARRVWDVYEKNLFINMTRGIQYLDEIKELLMDGFESAMDNGPVAKEKVMGVKIKLMDAKIHEDAVHRGPAQVLPAIRKGIFGAMMSAEPVLLEPIQKVFINVPQDYMGSATREIQNRRGQIVNMTQEGDMVTVESTVPVAEMFGFAGDIRSATEGRCLWSTENAGFERLPNELQHTITREVRTRKGLSPEPYRADHYLG
binding [1]: binds

B3: recombinant ribosomal protein L12 of M. thermautotrophicus (protein, UniProt P05394 1-101)
chain: MEYIYAAMLLHTTGKEINEENVKSVLEAAGAEVDDARVKALIAALEDVDIEEAMETTAVAAAPAAAAAPAAAEEAEEEAEEEEEEEEAEEEAAAGLGALFG
binding [3]: binds
binding [4]: binds

Continued, values first:

binding [2]: binds
B2: ribosomal protein L3 as found in the yeast two-hybrid search (protein, UniProt O26110 1-337)
chain: MARHHQPRKGSVAFSPRKRAARETPRVKSWPQVDEPGLLALAGYKAGMTHVMMVDNQKNSPTEGMEVSTPVTILEVPPLTVMAVRTYEKTSRGLKTLGEVLATETKDDLRRKLTPPADDYDQEAAIEKIRSNMEYVADVRVIVHTNPRLASVPKKKPEVFECGLGGKTPEEKFEYALEILGKDVRASEIFSEGAFVDAIAVTKGKGFQGPVKRWGIRIQYGKAARSSKGRHIGSLGPWTPSRTMWTVPQAGQMGYHRRTEYNKQILKIGDASEADLVNPDGGFVRYGLVRNDYVMIKGSVPGPTKRLVVLRKAIRAAGKQEEAPQINYISTASKQGV

binding [5]: binds
B4: ribosomal protein L12p (P1 homologue) of M. thermautotrophicus, as it stands in the ribosome (protein, UniProt P05394 1-101)
chain: MEYIYAAMLLHTTGKEINEENVKSVLEAAGAEVDDARVKALIAALEDVDIEEAMETTAVAAAPAAAAAPAAAEEAEEEAEEEEEEEEAEEEAAAGLGALFG

— publication PMC4005694
